# Laboratory results published in PubChem BioAssay AID504444 (National Center for Advancing Translational Sciences (NCATS), 2011).
# Hit rate of the full screen: of about 360,000 compounds, about 7,500 (2.1%) were called active. Inconclusive means that the source gave no clear call. Such entries were picked first, then a sample of the others. Calls follow the shape of the dose curve; as a rule, active = well fitted inhibition curve with a large enough effect; inconclusive = small, poorly fitted or top-dose-only effect, or effect the other way; inactive = flat fitted curve, though single readings scatter. Where the call is inconclusive, the potency comes from a doubtful curve fit.
# Assay: Nrf2 qHTS screen for inhibitors; also: nearly all actives have a fitted effect of over 60% in size
# Conditions: A549 ARE-Fluc reporter, luciferase luminescence, 18-24 h; series mostly up to 46 µM
# Outline: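 In this cell-based qHTS, ARE-driven firefly luciferase in A549 cells reports Nrf2 activity; the luminescent signal after BugLite lysis is the measured value, with a prior CellTiter-Fluor read for cell health.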
# Potency is read from the fitted curve at half-maximal effect.
row,SMILES,Potency
1,CCCN1CNc2c(c(=O)[nH]c(=S)n2CCc2ccc(C)c(C)c2)C1,"inconclusive: 32.6 µM [falling, partial curve, poor fit]"
2,CC1CCCC/C1=N/Nc1ccc([N+](=O)[O-])cc1[N+](=O)[O-] (stereo not given),inactive
3,CC(C)Cn1c(=O)c(C(=O)Nc2ccncc2)c(O)c2ccccc21,"inconclusive: 5.8 µM [falling, full curve, poor fit]"
4,CCOc1ccc(Cc2noc3c2C(=O)CCC3)cc1OCC,"inconclusive: 4.11 µM [falling, partial curve, poor fit]"
5,COc1ccc(C(=O)N(CC(=O)Nc2sc(C)c(C)c2C(N)=O)C2CCCC2)cc1,"inconclusive: 16.4 µM [falling, partial curve, poor fit]"
6,COc1ccc(C(=O)Nc2ccc(S(=O)(=O)N3CCc4ccccc43)cc2)cc1,active: 14.6 µM
7,CCCc1cc(C(=O)Nc2ccc(C)cc2)no1,"inconclusive: 23.1 µM [activator, single point]"
8,CCN(CC)c1ccc2cc(C(N)=O)/c(=N\NC(=O)c3ccncc3)oc2c1,"inconclusive: 20.6 µM [falling, partial curve, poor fit]"
9,c1ccc2c(Nc3ccc(N4CCOCC4)cc3)nc(N3CCOCC3)nc2c1,"inconclusive: 29.1 µM [activator, single point]"
10,CC(C)[C@H](NC(=O)c1ccccc1F)C(=O)Nc1nc2c(s1)CCCC2,inactive
11,COc1cccc(N2CCN(C(=O)c3ccc(CS(=O)c4ccc(C)cc4)o3)CC2)c1 (stereo not given),"inconclusive: 29.1 µM [activator, single point]"
12,COc1ccc(-c2c(C)nn3c(N)c(-c4ccccc4)cnc23)cc1OC,"inconclusive: 7.31 µM [falling, full curve, poor fit]"
13,COc1ccccc1NC(=O)c1ccc(S(=O)(=O)N(C)c2ccccc2OC)cc1,"inconclusive: 20.6 µM [falling, single point]"
14,O=C(CCSc1ccc(Cl)c(Cl)c1)NC12CC3CC(CC(C3)C1)C2,"inconclusive: 32.6 µM [falling, single point]"
15,NS(=O)(=O)c1ccc(NC(=S)N2CCN(c3ccc(Cl)c(Cl)c3)CC2)cc1,"inconclusive: 5.8 µM [falling, partial curve, poor fit]"
16,O=C(CN1CCN(S(=O)(=O)c2ccccc2)CC1)Nc1ccc([N+](=O)[O-])cc1,inactive
17,CCc1cccc2sc(N(CCCN3CCOCC3)C(=O)CS(=O)(=O)c3ccccc3)nc12,inactive
18,Cc1nn(C)c(C)c1S(=O)(=O)N1CCC(C(=O)NC2CCCc3ccccc32)CC1 (stereo not given),inactive
19,CCOC(=O)c1ccc(-c2ccc(/C=C(\C#N)C(=O)Nc3ccc(OCC)cc3)o2)cc1,"inconclusive: 3.66 µM [activator, partial curve, poor fit]"
20,CCOC(=O)CNC(=O)CSc1nnc(NC(=O)c2ccc3c(c2)OCO3)s1,"inconclusive: 23.1 µM [falling, partial curve, poor fit]"
21,Cc1cc2c(s1)c1cnn(Cc3ccc4ccccc4c3)c(=O)c1n2C,inactive
22,Cc1cc(C(=O)COc2ncnc3sccc23)c(C)n1C,"inconclusive: 2.31 µM [activator, full curve, poor fit]"
23,Cn1c(=O)[nH]c(=O)c2c1nc(N1CCCCC1)n2C/C=N/NC(=O)c1cc(Br)ccc1O,"inconclusive: 4.11 µM [falling, partial curve, poor fit]"

# Taken from above.
# `Cc1cc2c(s1)c1cnn(Cc3ccc4ccccc4c3)c(=O)c1n2C` – Potency: inactive
# `CCN(CC)c1ccc2cc(C(N)=O)/c(=N\NC(=O)c3ccncc3)oc2c1` – Potency: inconclusive: 20.6 µM [falling, partial curve, poor fit]
# `CCOC(=O)c1ccc(-c2ccc(/C=C(\C#N)C(=O)Nc3ccc(OCC)cc3)o2)cc1` – Potency: inconclusive: 3.66 µM [activator, partial curve, poor fit]

# Additional structures

row,SMILES,Potency
1,CS(=O)(=O)N(Cc1ccco1)CC(O)Cn1c2ccccc2c2ccccc21 (stereo not given),"inconclusive: 3.26 µM [falling, full curve]"
2,CCc1ccc(-n2c(=O)c3cccnc3n2CC(=O)Nc2cc(F)ccc2F)cc1,"inconclusive: 11.6 µM [activator, partial curve]"
3,Cc1nc2ccccc2c(-c2ccccc2)c1C(=O)c1ccccc1,active: 23.1 µM
4,CC(C)CC(=O)N1CCN(c2ccc([N+](=O)[O-])cc2Cl)CC1,"inconclusive: 16.4 µM [falling, partial curve]"
5,CCC1(C)Cc2ccccc2-c2nc3n(c(=O)c21)CC(C(=O)O)S3 (stereo not given),inactive
6,Cc1ccc(C(=O)Nc2sc3c(c2C(=O)O)CCC(C)C3)o1 (stereo not given),active: 5.8 µM
7,CC(=O)c1csc(-c2cccc(-c3nc4ccc(Cl)cn4c3NC3CCCCC3)c2)c1,inactive
8,O=C1CCCC2=C1C1c3ccccc3C(=O)N1c1ccc(C(=O)c3ccccc3)cc1N2 (stereo not given),"inconclusive: 20.6 µM [falling, single point]"
9,OCCN(CCO)c1ccc2ccccc2c1,inactive
10,COc1cccc(N2CCN(C3C4CC5CC(C4)CC3C5)CC2)c1 (stereo not given),"inconclusive: 16.4 µM [activator, partial curve]"
11,Cc1c(O)c2c(=O)n(-c3ccccc3)c(-c3ccccc3)cc2oc1=O,inactive
12,Cc1ccccc1-c1nc(-c2cccnc2)no1,"inconclusive: 5.8 µM [activator, partial curve]"
13,CCc1nn2c(=O)cc(COC(=O)c3ccco3)nc2s1,"inconclusive: 6.51 µM [activator, single point]"
14,CCOc1ccccc1NC(=O)CSc1ccc(-c2sc(C)nc2C)nn1,active: 20.6 µM
15,Cn1c2cc(S(C)(=O)=O)sc2c2cnn(Cc3ccccc3F)c(=O)c21,inactive
16,O=C1/C(=C/c2cccnc2)CCc2c1[nH]c1ccccc21,"inconclusive: 29.1 µM [falling, partial curve, poor fit]"
17,O=c1[nH]cnc2sc(-c3ccccc3)cc12,inactive
18,COc1ccc(C2SCCN2S(=O)(=O)c2ccccc2)cc1 (stereo not given),"inconclusive: 14.6 µM [falling, partial curve, poor fit]"
19,Cc1ccc(S(=O)(=O)CCC(=O)Nc2ccc3nc(C)sc3c2)cc1,"inconclusive: 29.1 µM [falling, single point]"
20,COc1cccc(C2CC(=O)N3CN(c4cccc(Cl)c4C)CSC3=C2C#N)c1OC (stereo not given),inactive
21,S=c1[nH]ccn1-c1cccc(Cl)c1,inactive
22,CCOC(=O)C1CCN(S(=O)(=O)c2csc(C(N)=O)c2)CC1,"inconclusive: 14.6 µM [falling, partial curve, poor fit]"
